Here are results for three molecules from publication PMC12238573 (Nature Communications, 2025).

Changes are numbered by the printed parent chain. Results are given in words; binding and its absence hold for the method and conditions named. For part of these data: In cells and extracts the contact can be indirect. Some results given as binding are weak or reduced against the parent protein; the word gives no strength.

The target of assay [1] is T1, PRPSAP2 (endogenous, mouse) (mouse (endogenous in NIH3T3 and C57BL/6 tissues)) (UniProt Q8R574).
T1 sequence: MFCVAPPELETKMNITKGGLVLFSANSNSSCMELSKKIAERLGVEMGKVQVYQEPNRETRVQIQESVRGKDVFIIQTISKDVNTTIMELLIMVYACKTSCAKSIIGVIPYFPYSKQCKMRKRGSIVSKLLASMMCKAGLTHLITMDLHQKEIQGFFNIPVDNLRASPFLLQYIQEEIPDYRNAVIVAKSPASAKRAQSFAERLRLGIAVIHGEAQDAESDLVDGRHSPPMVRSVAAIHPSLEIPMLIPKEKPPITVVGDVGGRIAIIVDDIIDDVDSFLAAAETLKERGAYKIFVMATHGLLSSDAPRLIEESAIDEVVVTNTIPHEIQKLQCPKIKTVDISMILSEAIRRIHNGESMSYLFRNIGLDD
Nature of the assay: SEC; native whole-cell lysates of parental NIH3T3 and HEK293T cells on Superose 6 Increase 3.2/300; fractions analysed by Western blot with internal size standards; digitonin lysis buffer pH 7.5, 200 mM NaCl. For orientation: Size exclusion chromatography separates by hydrodynamic size, large species first.

The target in assay [2] is T2, PRPS2 (endogenous, mouse) (mouse (endogenous in NIH3T3 and C57BL/6 tissues)) (UniProt Q9CS42).
T2 sequence: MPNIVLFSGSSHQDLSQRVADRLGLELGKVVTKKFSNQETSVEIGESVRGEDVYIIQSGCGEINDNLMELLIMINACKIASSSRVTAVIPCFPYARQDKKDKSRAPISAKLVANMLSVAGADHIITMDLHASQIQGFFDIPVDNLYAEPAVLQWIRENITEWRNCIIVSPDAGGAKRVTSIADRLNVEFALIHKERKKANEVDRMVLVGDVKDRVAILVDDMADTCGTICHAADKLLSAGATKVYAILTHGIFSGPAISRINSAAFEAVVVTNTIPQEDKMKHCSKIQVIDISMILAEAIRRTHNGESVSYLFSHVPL
Described as above.

For assay [3], the target named is T1, PRPSAP2 (endogenous, mouse) (mouse (endogenous in NIH3T3 and C57BL/6 tissues)). The experiment in a line: SEC; native tissue lysates (liver, kidney, lung) of 12-week-old male C57BL/6 mice on Superose 6 Increase 3.2/300; fractions analysed by Western blot.
Assay [4] addresses T2, PRPS2 (endogenous, mouse) (mouse (endogenous in NIH3T3 and C57BL/6 tissues)). The assay is described as above.
Assay [5] deals with T1, PRPSAP2 (endogenous, mouse) (mouse (endogenous in NIH3T3 and C57BL/6 tissues)). The experiment in a line: SEC; native whole-cell lysates of NIH3T3 CRISPR knockout lines (P2/AP1/AP2, P2/AP1, P1/AP2, P1, P2, AP2, AP1, AP1/AP2, P1/AP1 KO), some re-expressing PRPS2, AP1 or AP2 constructs, on Superose 6 Increase 3.2/300; fractions analysed by Western blot.
The target of assay [6] is T2, PRPS2 (endogenous, mouse) (mouse (endogenous in NIH3T3 and C57BL/6 tissues)). The assay is described as above.
Assay [7] concerns the target PRPSAP1 (endogenous, mouse) (mouse (endogenous in NIH3T3 and C57BL/6 tissues)) (UniProt Q9D0M1). The experiment in a line: SEC; native whole-cell lysates of NIH3T3 P2/AP2 KO cells and of P2/AP1/AP2 KO cells stably expressing AP1 (no PRPS2, no AP2) on Superose 6 Increase 3.2/300; fractions analysed by Western blot.
Assay [8] deals with T3, PRPS1-ALFA (transiently transfected) (UniProt Q9D7G0).
T3 sequence: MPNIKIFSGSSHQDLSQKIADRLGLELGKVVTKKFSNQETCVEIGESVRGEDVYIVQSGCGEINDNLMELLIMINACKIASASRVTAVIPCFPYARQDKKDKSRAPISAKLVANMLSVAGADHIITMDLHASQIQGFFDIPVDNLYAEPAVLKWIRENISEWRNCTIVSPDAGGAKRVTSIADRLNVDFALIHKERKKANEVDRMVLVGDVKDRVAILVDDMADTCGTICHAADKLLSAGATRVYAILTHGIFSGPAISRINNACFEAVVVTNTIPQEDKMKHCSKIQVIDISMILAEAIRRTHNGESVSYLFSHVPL
The experiment in a line: co-IP; ALFA pulldown from whole cell extracts of NIH3T3 P2/AP2 KO cells transiently transfected with PRPS1-ALFA.

Assay [9] deals with PRPSAP1-ALFA, short isoform (UniProt Q14558). The experiment in a line: SEC; native whole-cell lysates of NIH3T3 P2/AP2 KO cells and of P2/AP1/AP2 KO cells stably expressing AP1 (no PRPS2, no AP2) on Superose 6 Increase 3.2/300; fractions analysed by Western blot.
The target of assay [10] is T4, PRPS1 (endogenous, mouse) (mouse (endogenous in NIH3T3 and C57BL/6 tissues)) (UniProt Q9D7G0).
T4 sequence: T3 sequence
Nature of the assay: SEC; native whole-cell lysates of parental NIH3T3 and HEK293T cells on Superose 6 Increase 3.2/300; fractions analysed by Western blot with internal size standards; digitonin lysis buffer pH 7.5, 200 mM NaCl.

Assay [11] deals with T4, PRPS1 (endogenous, mouse) (mouse (endogenous in NIH3T3 and C57BL/6 tissues)). The experiment in a line: SEC; native whole-cell lysates of NIH3T3 AP1 KO and AP1/AP2 KO cells on Yarra SEC-2000 (1 kDa to 300 kDa); fractions analysed by Western blot.
The target is the same in assay [12]. Nature of the assay: SEC; native tissue lysates (liver, kidney, lung) of 12-week-old male C57BL/6 mice on Superose 6 Increase 3.2/300; fractions analysed by Western blot.
Assay [13] has the same target. Nature of the assay: SEC; native whole-cell lysates of NIH3T3 CRISPR knockout lines (P2/AP1/AP2, P2/AP1, P1/AP2, P1, P2, AP2, AP1, AP1/AP2, P1/AP1 KO), some re-expressing PRPS2, AP1 or AP2 constructs, on Superose 6 Increase 3.2/300; fractions analysed by Western blot.
For assay [14], the target named is T5, PRPS1-mNG11-ALFA (endogenous knock-in) (mouse (endogenous in NIH3T3)) (UniProt Q9D7G0).
T5 sequence: T3 sequence
Nature of the assay: co-IP; ALFA-tag pulldown (anti-ALFA nanobody agarose) from lysate of NIH3T3 knock-in cells expressing PRPS1-ALFA from the endogenous locus; washes with 0.5 M NaCl, 0.5% Triton X-100.

B1: PRPSAP1 (endogenous, mouse) (protein, UniProt Q9D0M1 1-356)
chain: MNAARTGYRVFSANSTAACTELAKRITERLGAELGKSVVYQETNGETRVEIKESVRGQDIFIIQTIPRDVNTAVMELLIMAYALKTACARNIIGVIPYFPYSKQSKMRKRGSIVCKLLASMLAKAGLTHIITMDLHQKEIQGFFSFPVDNLRASPFLLQYIQEEIPNYRNAVIVAKSPDAAKRAQSYAERLRLGLAVIHGEAQCTELDMDDGRHSPPMVKNATVHPGLELPLMMAKEKPPITVVGDVGGRIAIIVDDIIDDVESFVAAAEILKERGAYKIYVMATHGILSAEAPRLIEESPIDEVVVTNTVPHELQKLQCPKIKTVDISLILSEAIRRIHNGESMAYLFRNITVDD
For B1, the binding result in assay [1], in [2], in assay [3], in [4], in [5] and in assay [6] was “binds” throughout. In addition, the figures for the binding result in assay [7] and in assay [8] were “binds” and “binds weakly”, respectively.

B2: PRPSAP1-ALFA, short isoform (protein, UniProt Q14558 1-356)
chain: B1 chain with P301S, I302V, L315V
Take B2: the binding result in assay [6] and in assay [9] was “binds” each time.

B3: PRPS2 (endogenous, mouse) (enzyme, UniProt Q9CS42 1-318, looked up)
chain: T2 sequence
notes: PRPS2, endogenous in mouse cells and tissues; also called P2; phosphoribosyl pyrophosphate synthetase 2; source: endogenous, NIH3T3 lysate (parental and CRISPR knockout lines); endogenous, C57BL/6 mouse liver, kidney and lung lysates
Consider B3, for which the binding entry in assay [10], in assay [11], in assay [12], in [13] and in assay [14] was “binds” each time.
